According to the supplement of paper PMC4683952:
This is one part of the list. Rule as the data show it: active = 2 or more and inactive = the rest. Repeats in this data set agree poorly, so a single value says little.

Each compound was assayed on Lgr5 (MarsCy1-Lgr5-EGFP, U2OS) (assay: cell-surface Lgr5 expression (SCi1 fluorescence, background-subtracted) relative to WT DMSO (fold of DMSO control); higher = more Lgr5 at the plasma membrane). Conditions: U2OS MarsCy1-Lgr5-EGFP stable; treatment time: overnight; library: ActiProbe-5K (TimTec); 25 µM.

Compound | cell-surface Lgr5 expression
CCS(=O)(=O)Nc1ccc(Br)cn1 | inactive: 1.11
CSC1=NC2CCCCC2N1 (stereo unspecified) | inactive: 0.973
Cc1ccc(C2C(C#N)=C(N)Oc3[nH]nc(C)c32)o1 (stereo unspecified) | inactive: 1.24
c1cc(-c2nnc3n2N=C(c2ccc4c(c2)OCO4)CS3)ccn1 | inactive: 0.43
C1C([C@H](OCC(=O)O)CC(C1)C)[C@H](C)C (stereo partly specified) | inactive: 1.36
c1(/c(nc2ccccc2nc1C)C)=N\OCc1c(F)cccc1 | inactive: 1.26
C(=c1/cc/c(=C(/C#N)C#N)cc1)(/C#N)C#N | inactive: 1.07
Brc1ccc2noc(-c3ccccc3)c2c1 | inactive: 1.14
Cl.c1ccc2c(c1)CCCC2C1=NCCN1 (stereo unspecified) | inactive: 1.24
CC1(C)Nc2ccccc2-c2c1ssc2=S | inactive: 0.491
CN(C)S(=O)(=O)Nc1cccc(N)c1 | inactive: 1.23
CN(C)c1ccc(-c2cc[n+](-c3nc4ccccc4nc3[N-]S(=O)(=O)c3ccccc3)cc2)cc1 | inactive: 1.25
Brc1ccc2cc[nH]c2c1 | inactive: 1.07
Fc1ccc(Nc2nc(Cl)nc(Cl)n2)c(F)c1 | inactive: 1.3
CC12CCC(C1)C(C)(C)C2NS(=O)(=O)c1ccc(F)cc1 (stereo unspecified) | inactive: 1.48
Fc1ccc(NC(=S)N2CCc3ccccc32)cc1 | inactive: 1.34
c1csc(Cc2cccs2)c1 | inactive: 1.49
O=c1[nH]c2ccnc(Cl)c2[nH]1 | inactive: 1.23
CC(C)(C)OC(=O)N1Cc2[nH]cnc2CC1C(=O)O (stereo unspecified) | inactive: 1.63
O=C1Nc2c(ccc(Cl)c2Cl)C12OCCCO2 | inactive: 1.27
O=c1oc2cc([N+](=O)[O-])ccc2c2ccc([N+](=O)[O-])cc12 | inactive: 1.28
COc1ccc2c(=O)ccccc2c1OC | inactive: 1.14
COc1cc(OC)c(/C=N\NC(N)=S)cc1Br | inactive: 1.2

Compound | cell-surface Lgr5 expression
CCN(CC)C(=O)NCCNC(=O)N(CC)CC | inactive: 1.39
CC(C)(C)C1=Nn2c(nnc2-c2ccc(C(C)(C)C)cc2)SC1 | inactive: 0.861
CN(C)CCCN1C(=O)C(O)=C(C(=O)c2ccco2)C1c1cccs1 (stereo unspecified) | inactive: 1.08
Nc1nc2c(F)cc(F)cc2s1 | inactive: 1.25
CC1=NNC(=O)C1CC(=O)N/N=C/c1ccc(C)o1 (stereo unspecified) | inactive: 1.05
CCCSc1nnc2c(n1)OC(CC)Nc1ccccc1-2 (stereo unspecified) | inactive: 0.956
COC(=O)/C(C#N)=C/c1nccn1C | inactive: 1.23
CCOC(=O)C1=C(C)NC(=O)NC1c1ccc(C)o1 (stereo unspecified) | inactive: 1.07
OC1CCCCC1c1cccs1 (stereo unspecified) | inactive: 1.27
CN(C)C(=O)N1CCN(S(=O)(=O)c2ccc3c(c2)OCCO3)CC1 | inactive: 1.16
Cn1cc([N+](=O)[O-])c(C(=O)n2cccn2)n1 | inactive: 1.02
C=CCNS(=O)(=O)c1ccc(OC)c(OC)c1 | inactive: 1.21
O=c1c2ccccc2nc2ccc3nnnn3n12 | inactive: 1.1
CC1(C)NC(=O)N(CO)C1=O | inactive: 1.4
CC1CCN(c2nc(N3CCOCC3)nc(N3CCOCC3)n2)CC1 | inactive: 1.11
Cc1ccc(/C=N/NC(=O)C(=O)NC(C)C)o1 | inactive: 1.12
Cn1cc(Br)c(C(=O)O)n1 | inactive: 1.29
C=CCOC(=O)CCCC(=O)NC1CCCCC1 | inactive: 1.08
CC1(C)CC(/N=N/C2CC(C)(C)NC(C)(C)C2)CC(C)(C)N1 | inactive: 1.21
Oc1ccc(/C=N\n2cnnc2)c(O)c1 | inactive: 0.865
COc1c(C)c(C)c(OC)c(S(=O)(=O)NCc2ccco2)c1C | inactive: 1.13
O=S(=O)(c1ccc(Br)cc1)N1CCCCCC1 | inactive: 1.42
CSc1nsc(SC)c1C#N | inactive: 1.22

Compound | cell-surface Lgr5 expression
CC(=O)Nc1ncnc2[nH]nnc12 | inactive: 0.913
Cc1nc2sc3c(c2c(=O)n1-n1cccc1)CCCC3 | inactive: 1.11
CS(=O)(=O)Nc1cc(C(F)(F)F)ccc1Oc1ccc2c(c1)OCO2 | inactive: 1.35
Oc1cc(Cl)c(Cl)c(Cl)c1O | inactive: 1.44
c1csc(C2NCCc3sccc32)c1 (stereo unspecified) | inactive: 1.06
C1(=C([C@]([C@@H]([C@@H]2(C1=CCN(C2)CC))c1cscc1)(C#N)C#N)N)C#N | inactive: 1.29
CN1C(=O)OC2(CC(C)(C)NC(C)(C)C2)C1(C)O (stereo unspecified) | inactive: 0.813
CC(C)(C)c1n[nH]c2c1C(c1ccc(Br)s1)C(C#N)=C(N)O2 (stereo unspecified) | inactive: 1.33
Cc1cc(C)c(S(=O)(=O)NC(C)C)c(C)c1 | inactive: 0.954
CC1CN(S(=O)(=O)c2ccc3ccccc3c2)CCN1S(=O)(=O)c1ccc2ccccc2c1 (stereo unspecified) | inactive: 1.52
CCC(C)(C)C(=O)Nc1cc(C)on1 | inactive: 1.12
CS(=O)(=O)OCC1COC(Cn2ccnn2)(c2ccc(Cl)cc2Cl)O1 (stereo unspecified) | inactive: 1.22
O=C(O)c1n[nH]cc1Cl | inactive: 1.06
O=C1CCCc2c1sc1nc3n(c(=O)c21)CCCCC3 | inactive: 1.19
CC(C)N=C1/C(=C/c2ccc(C(C)(C)C)cc2)COC/C1=C/c1ccc(C(C)(C)C)cc1 | inactive: 1.13
O=C(NC1CC1)c1n[nH]c(=O)c2ccccc12 | inactive: 1.28
N#CCOc1ccc2c(c1)OCO2 | inactive: 1.21
Cc1n[nH]c2c1C1(CCCCC1)C(C#N)=C(N)O2 | inactive: 1.15
C=CCC1CC=CC(CC=C)(C(O)(CC=C)CC=C)N1 (stereo unspecified) | inactive: 1.23
Fc1cc2nc(S)[nH]c2cc1Cl | inactive: 1.15
CCCCNC(=O)C(=O)NCCCn1ccnc1 | inactive: 1.11
CCN(CC)c1cc(F)c([N+](=O)[O-])cc1[N+](=O)[O-] | inactive: 0.285
C1(C=2C(CN(CC2)CC)C(/C(=C1N)C#N)=C1/CCN(CC1)CC)(C#N)C#N (stereo unspecified) | inactive: 1.06

Reprinted from the entries so far, four compounds:
Compound | cell-surface Lgr5 expression
C1(=C([C@]([C@@H]([C@@H]2(C1=CCN(C2)CC))c1cscc1)(C#N)C#N)N)C#N | inactive: 1.29
CN1C(=O)OC2(CC(C)(C)NC(C)(C)C2)C1(C)O (stereo unspecified) | inactive: 0.813
CC(C)(C)c1n[nH]c2c1C(c1ccc(Br)s1)C(C#N)=C(N)O2 (stereo unspecified) | inactive: 1.33
Cc1cc(C)c(S(=O)(=O)NC(C)C)c(C)c1 | inactive: 0.954

(listing goes on)

Compound | cell-surface Lgr5 expression
c1csc(C2Nc3cccc4cccc(c34)N2)c1 | inactive: 1.5
O=S(=O)(NCCC1C=CCCC1)c1ccc(Br)s1 (stereo unspecified) | inactive: 1.27
Oc1ccc(Cl)cc1C1=NCCNC(C(F)(F)F)=C1 | inactive: 1.1
Sc1nnc(-c2ccco2)n1/N=C/c1cccs1 | inactive: 0.969
CCCSc1ncc(C#N)c(N)n1 | inactive: 1.13
Cn1cc(-c2cc(C(=O)O)on2)cn1 | inactive: 1.28
CC(=O)Nc1nc(SCSc2n[nH]c(NC(C)=O)n2)n[nH]1 | inactive: 1.21
Cn1c(=O)n(C)c2cc(Cl)ccc21 | inactive: 1.61
N#Cc1c(/N=C\c2ccc([N+](=O)[O-])o2)sc2c1CCCC2 | active: 2.09
Cc1cc(C)nc(Sc2ccc3nsnc3c2[N+](=O)[O-])n1 | active: 3.49
CC(=O)CSc1ncnc2sc3c(c12)CCC(C)C3 (stereo unspecified) | inactive: 1.28
Cc1cc2c(c(=O)o1)C(c1ccc(Cl)s1)C(C#N)=C(N)O2 (stereo unspecified) | inactive: 1.62
Cn1ncc(Br)c1C(=O)Nc1cnccn1 | inactive: 0.989
CCN(CC)CCCNC(=O)C(=O)NCCCN(CC)CC | inactive: 0.996
C=C(O)c1ccc(-c2nnn(Cc3ccc(C)cc3)n2)cc1.O | inactive: 0.913
CN(C)c1ccc(N2CC(=O)S/C2=N/C#N)cc1 | inactive: 1.35
COc1nc(C)nc2onc(-c3ccc(C)s3)c12 | inactive: 1.23
CCS(=O)(=O)c1ccc(Cl)cc1 | inactive: 1.2
COC(=O)c1ccc(Br)o1 | inactive: 1
CC(C)Cn1c(=O)n(C)c(=O)c2[nH]cnc21 | inactive: 1.41
C=C(C)CNC(=S)Nc1ccc(F)c(F)c1 | inactive: 1.06
O=C1C(=O)N2CCCc3cccc1c32 | inactive: 1.28
COc1ccc(C2NN=C(c3ccccc3)S2)c2ccccc12 (stereo unspecified) | inactive: 0.924

Compound | cell-surface Lgr5 expression
N=c1[nH]c(=O)c2nn[nH]c2[nH]1 | inactive: 0.982
Clc1ccc(/C=N\N=c2/[nH]c(-c3ccc(Br)cc3)cs2)cc1 | inactive: 0.925
C=CCNc1nc(N)c(/C(N)=N\C#N)s1 | inactive: 1.04
Sc1nnc(-c2cccs2)o1 | inactive: 1.23
C=CCC1Cc2ccccc2C(CC=C)N1.Cl (stereo unspecified) | inactive: 1.15
Nc1ncc2c(n1)CCCC2=O | inactive: 1.07
Cc1nc2c(o1)CCc1ccccc1C2O (stereo unspecified) | inactive: 0.796
COc1nc(N2CCCCCC2)nc(N2CCCCCC2)n1 | inactive: 1.33
N#C/C(=C/c1ccc2c(c1)OCO2)C(N)=S | inactive: 1.09
CN(c1nc2ccccn2c(=O)c1C=O)C1CCCCC1 | inactive: 0.925
O=S(=O)(Nc1cc(Cl)cc(Cl)c1)c1ccc(F)cc1 | inactive: 1.14
O=[N+]([O-])c1ccc(Cl)c(Nc2nc3nonc3nc2Nc2cc([N+](=O)[O-])ccc2Cl)c1 | inactive: 1.2
C(=N/N1CCN(C2c3ccccc3-c3ccccc32)CC1)/c1cccc2ccccc12 | inactive: 0.958
O=S(=O)(c1ccc2oc3ccccc3c2c1)N1CCN(c2ccccc2)CC1 | active: 2.04
FC(OC(F)(F)F)c1nc2ccccc2[nH]1 (stereo unspecified) | inactive: 0.979
CC1CN(S(=O)(=O)c2cccs2)CC(C)O1 (stereo unspecified) | inactive: 1.43
C=CC[C@@H]1Cc2c(Br)ccc(Br)c2[C@@H](CC=C)N1.Cl | inactive: 1.16
NS(=O)(=O)c1ccc2c(c1)NC(=O)CO2 | inactive: 1.16
O=C1CC(O)(C(F)(F)F)OCC12CCCCC2 (stereo unspecified) | inactive: 1.02
